US12662504B2, “High-solubility rebaudioside D complex” (SUNTORY HOLDINGS LIMITED, priority 2019, dated 2026)

Assay: Sweetness relative to sugar (sucrose)
Conditions: calculated from central values of the sweetnesses

Molecule	amount of steviol glycoside corresponding to Brix 1
C=C1C[C@@]23CC[C@H]4[C@@](C)(CCC[C@@]4(C)C(=O)O[C@@H]4O[C@H](CO)[C@@H](O)[C@H](O)[C@H]4O)[C@@H]2CC[C@]1(O[C@@H]1O[C@H](CO)[C@@H](O)[C@H](O[C@@H]2O[C@H](CO)[C@@H](O)[C@H](O)[C@H]2O)[C@H]1O[C@@H]1O[C@H](CO)[C@@H](O)[C@H](O)[C@H]1O)C3 [Reb. A, rebaudioside A]	30.7 ppm
C=C1C[C@@]23CC[C@H]4[C@@](C)(CCC[C@@]4(C)C(=O)O[C@@H]4OC(CO)[C@@H](O)C(O)C4O[C@@H]4OC(CO)[C@@H](O)C(O)C4O)[C@@H]2CC[C@]1(O[C@@H]1OC(CO)[C@@H](O)C(O[C@@H]2OC(CO)[C@@H](O)C(O)C2O)C1O[C@@H]1OC(CO)[C@@H](O)C(O)C1O)C3 (stereo partly shown) [Reb. D, rebaudioside D]	40.0 ppm
C=C1C[C@@]23CC[C@H]4[C@@](C)(CCC[C@@]4(C)C(=O)O[C@@H]4O[C@H](CO)[C@@H](O)[C@H](O[C@@H]5O[C@H](CO)[C@@H](O)[C@H](O)[C@H]5O)[C@H]4O[C@@H]4O[C@H](CO)[C@@H](O)[C@H](O)[C@H]4O)[C@@H]2CC[C@]1(O[C@@H]1O[C@H](CO)[C@@H](O)[C@H](O[C@@H]2O[C@H](CO)[C@@H](O)[C@H](O)[C@H]2O)[C@H]1O[C@@H]1O[C@H](CO)[C@@H](O)[C@H](O)[C@H]1O)C3 [Reb. M, rebaudioside M]	40.0 ppm
rebaudioside B [Reb. B]	30.7 ppm
